We go through four substances from article PMC11508707.

Results are given in words; binding and its absence hold for the method and conditions named. In cells and extracts the contact can be indirect. Binding calls can cover weak binding; strength is not graded here. Tags and fused reporters may be left off the sequences shown.

The target in the assay is T1, Flag-STING (stimulator of interferon genes) (UniProt Q3TBT3).
T1 sequence: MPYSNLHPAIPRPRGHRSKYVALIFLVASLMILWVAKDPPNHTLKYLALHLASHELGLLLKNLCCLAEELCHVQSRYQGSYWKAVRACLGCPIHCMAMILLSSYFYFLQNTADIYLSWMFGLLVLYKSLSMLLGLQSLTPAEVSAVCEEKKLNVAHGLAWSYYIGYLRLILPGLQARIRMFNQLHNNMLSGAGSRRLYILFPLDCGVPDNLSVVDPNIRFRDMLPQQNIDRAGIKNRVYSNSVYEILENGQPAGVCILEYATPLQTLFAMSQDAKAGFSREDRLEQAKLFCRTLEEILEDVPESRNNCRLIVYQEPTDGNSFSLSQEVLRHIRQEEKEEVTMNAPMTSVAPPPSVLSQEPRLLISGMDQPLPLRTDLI
The assay is described as follows: co-IP; RAW264.7 cells co-transfected by electroporation with HA-ROP5 (or truncations) and Flag-tagged host protein plasmids; lysed at 24 hpt in RIPA buffer; rabbit antibodies (1 ug) 1 h at 4 °C, Protein A/G PLUS-Agarose overnight; washed at least 6 times with RIPA; Western blot.
Regarding “HA-ROP5ΔPD1 (ROP5 lacking predicted domain 1) (Toxoplasma gondii (PRU strain, type II)) (domain or fragment)”, the binding entry is “binds”.

Regarding “HA-ROP5ΔPD2 (ROP5 lacking predicted domain 2) (Toxoplasma gondii (PRU strain, type II)) (domain or fragment)”, the binding result is reported as “no binding”.

For the substance “HA-ROP5ΔPD3 (ROP5 lacking predicted domain 3) (Toxoplasma gondii (PRU strain, type II)) (domain or fragment)”, the binding result is recorded as “binds”.

Take “HA-ROP5ΔPD4 (ROP5 lacking predicted domain 4) (Toxoplasma gondii (PRU strain, type II)) (domain or fragment)”: the binding result is given as “binds”.
